This passage reports binding results from article PMC12068309.

Protein sequences, listed by entry. Tags and fused reporters are not part of them.
UniProt O43865: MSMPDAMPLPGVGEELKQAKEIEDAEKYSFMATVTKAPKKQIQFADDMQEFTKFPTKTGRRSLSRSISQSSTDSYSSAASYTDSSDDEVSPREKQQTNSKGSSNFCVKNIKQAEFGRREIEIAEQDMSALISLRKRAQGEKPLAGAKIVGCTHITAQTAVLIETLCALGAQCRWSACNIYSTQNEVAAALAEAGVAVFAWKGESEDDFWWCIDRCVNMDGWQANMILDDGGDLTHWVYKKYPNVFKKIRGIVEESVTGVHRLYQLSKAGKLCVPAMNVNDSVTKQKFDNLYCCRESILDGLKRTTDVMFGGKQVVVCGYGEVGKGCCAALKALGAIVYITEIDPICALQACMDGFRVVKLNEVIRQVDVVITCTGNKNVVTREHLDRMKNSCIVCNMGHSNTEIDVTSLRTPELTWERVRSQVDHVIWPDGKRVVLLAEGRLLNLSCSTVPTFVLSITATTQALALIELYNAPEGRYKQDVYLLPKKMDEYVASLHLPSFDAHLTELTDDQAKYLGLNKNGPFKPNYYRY

The assay concerns the target HA-AHCYL1 (UniProt O43865). Briefly: co-IP; exogenous proteins in HEK293T; IP with HA antibody, detected by Myc antibody.

Results are given in words; binding and its absence hold for the method and conditions named. Binding seen in cells or lysates may run through a third protein. Some entries that bind do so weakly or less than the wild type. Tags and fused reporters may be left off the sequences shown.

B1: Myc-PREX2 DH domain (domain or fragment, UniProt Q70Z35 23-214)
chain: LRVCVLSELQKTERDYVGTLEFLVSAFLHRMNQCAASKVDKNVTEETVKMLFSNIEDILAVHKEFLKVVEECLHPEPNAQQEVGTCFLHFKDKFRIYDEYCSNHEKAQKLLLELNKIRTIRTFLLNCMLLGGRKNTDVPLEGYLVTPIQRICKYPLILKELLKRTPRKHSDYAAVMEALQAMKAVCSNINEA
For B1, the binding result is on record as “binds”.

B2: Myc-PREX2 PH domain (domain or fragment, UniProt Q70Z35 245-361)
chain: EMLMCGVLLKISSGNIQERVFFLFDNLLVYCKRKHRRLKNSKASTDGHRYLFRGRINTEVMEVENVDDGTADFHSSGHIVVNGWKIHNTAKNKWFVCMAKTPEEKHEWFEAILKERE
Consider B2, for which the binding result was “binds”.
